# Reference: PubChem BioAssay AID1347076 (National Center for Advancing Translational Sciences (NCATS), 2019)
# The whole screen tested about 400,000 compounds, of which about 13,000 (3.2%) were called active. This list was built around the results that the source calls inconclusive (neither active nor inactive); the mix of calls is not that of the screen. Calls come from the whole dose curve; as a rule, active = well fitted cell-killing curve with a large enough effect; inconclusive = small, poorly fitted or top-dose-only effect, or effect the other way; inactive = flat fitted curve, though single readings scatter. A potency beside an inconclusive call is a rough fit, not a confirmed value.
# Test: qHTS assay for MDR1-selective chemotherapeutics: Primary screen using the drug-selected MDR subline cells KB-V1; note: nearly all actives have a fitted effect of over 60% in size
# Settings: KB-V1 MDR cells viability, CellTiter-Glo, 72 h; activity change, negative = cytotoxicity: at 46.1 µM (top of the series)
# Outline: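 Luminescent ATP read-out (CellTiter-Glo, 10 min) measures survival of drug-selected KB-V1 MDR cells after 72 h, 37 degrees C compound exposure. Medium: phenol-red-free DMEM, 10% FBS. Values from fitted concentration-response curves.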
# % is set by controls: 0 for no effect and ±100 for the full control effect; potency is the fitted concentration of half-maximal effect.
SMILES,Potency,"activity change, negative = cytotoxicity"
C=CCNC(=O)c1ccc(NC(=O)C2=CSCCO2)cc1,inactive,
COc1ccc2cc(C(=O)O)n(CC(=O)c3ccccc3)c2c1,inactive,
COc1cc(C(=O)NC(=S)NCc2ccncc2)cc(OC)c1OC,"inconclusive: 23.1 µM [cytotoxic, single point]",
CC1=C(C(=O)OC(C)(C)C)C(c2cccs2)NC(=O)N1 (configuration not stated),"inconclusive: 23.1 µM [cytotoxic, partial curve]",
CCc1ccc(-n2c3nc(=O)[nH]c(=O)c-3cc3c(C)nn(-c4ccccc4)c32)cc1,inactive,
CCOC(=O)CCCNC(=O)CCCNC(=O)C(c1ccccc1)c1ccccc1,"inconclusive: 10.3 µM [cytotoxic, partial curve, poor fit]",
Cc1ccc(NC(=O)C2CCN(S(=O)(=O)c3cccs3)CC2)cc1C,"inconclusive: 25.9 µM [cytotoxic, single point]",
C=C(C)C1Cc2c(C)nn(-c3nc(C)cc(C)n3)c2C1 (configuration not stated),"inconclusive: 23.1 µM [cytotoxic, single point]",
C[C@@H]1CN([C@H](C)CO)C(=O)CCCn2cc(nn2)CO[C@H]1CN(C)C(=O)Nc1ccccc1F,inactive,
CN(C)S(=O)(=O)c1cccc(NC(=O)c2cc3c(cc2Cl)N2CCCCCC2=NS3(=O)=O)c1,"inconclusive: 16.4 µM [rising, single point]",
CCOc1ccc2cc(C#N)c(SCC(=O)N3CCC(C)CC3)nc2c1,active: 2.59 µM,
Cc1ccc(C(=O)NC2CCCCCCC2)cc1S(=O)(=O)N1CCOCC1,inactive,
CC1(Br)C(Sc2ccccc2[N+](=O)[O-])=Nc2ccccc21 (configuration not stated),"inconclusive: 20.6 µM [cytotoxic, single point]",
Cc1ccc(-c2noc(-c3ccc(NC4CCCC4)c([N+](=O)[O-])c3)n2)cc1,inactive,
CNC(=S)N1CCN(c2ccc(Cl)c(Cl)c2)CC1,"inconclusive: 29.1 µM [cytotoxic, single point]",
O=c1c2ccccc2oc2ccc(NCCCN3CCOCC3)cc12,"inconclusive: 0.0041 µM [rising, full curve, poor fit]",
O=C(N/C(=C\c1ccc(Br)cc1)C(=O)N1CCCC1)c1cccs1,"inconclusive: 16.4 µM [cytotoxic, single point]",
CCOc1cc(-c2cc(-c3ccc(OC)cc3)nc(N)c2C#N)ccc1O,"inconclusive: 14.6 µM [cytotoxic, partial curve, poor fit]",
O=C(NCC(c1ccco1)N1CCc2ccccc2C1)c1ccccc1 (configuration not stated),"inconclusive: 16.4 µM [cytotoxic, single point]",
COc1ccccc1NS(=O)(=O)c1cc(NC(=O)c2ccccc2C)ccc1N1CCOCC1,active: 8.2 µM,
Nc1ncc([N+](=O)[O-])c(Oc2ccccc2F)n1,"inconclusive: 10.3 µM [rising, partial curve]",
OCCN(Cc1ccccc1)C(=S)Nc1ccc(F)cc1,"inconclusive: 5.17 µM [cytotoxic, full curve]",
CC(C)(C)OC(=O)N1CCC(c2nnc(SCc3ccccc3Cl)o2)CC1,active: 9.2 µM,
O=C(CC1CS(=O)(=O)CC1CC(=O)Oc1ccccc1F)Oc1ccccc1F (configuration not stated),inactive,

SMILES,Potency,"activity change, negative = cytotoxicity"
Cc1cccc(C)c1N=Cc1c(O)n(-c2nccs2)c(=O)c2ccccc12,active: 23.1 µM,
Cc1cc(C)n(-c2nnc(NC(C)(C)C)nn2)n1,inactive,
COc1ccc(CNC(=S)NCc2ccc(F)cc2)cc1OC,"inconclusive: 20.6 µM [cytotoxic, single point]",
CC1CCN(Cc2cc(=O)oc3ccc4ccccc4c23)CC1,"inconclusive: 23.1 µM [cytotoxic, partial curve, poor fit]",
CCOc1ccc(C(C)=O)cc1COc1ccc(C)nc1[N+](=O)[O-],"inconclusive: 13 µM [cytotoxic, single point]",
O=C(Nc1ccc(S(=O)(=O)NC2=NCCCCC2)cc1)c1cccc(S(=O)(=O)N2CCOCC2)c1,"inconclusive: 7.31 µM [rising, partial curve, poor fit]",
O=C(NC(=S)N1CCN(Cc2ccc3c(c2)OCO3)CC1)c1cccc(Br)c1,active: 7.31 µM,
CC1CCCN(c2nc3ccccc3nc2C(C#N)S(=O)(=O)c2ccccc2)C1 (configuration not stated),"inconclusive: 18.4 µM [cytotoxic, single point]",
COC(=O)c1c(NC(=O)c2cccc(N3C(=O)CCC3=O)c2)sc2c1CCN(C(C)=O)C2,inactive,
O=C(NCCCN1CCOCC1)c1cc(Cl)ccc1OCc1ccccc1,inactive,
C=CCn1c(SCc2ccc(Br)cc2F)nc2cc(C(=O)O)ccc2c1=O,inactive,
Cc1cc(C(=O)N2CCN(c3ccccc3)CC2)no1,"inconclusive: 29.1 µM [cytotoxic, single point]",
COc1ccc(S(=O)(=O)Nc2cc(Cl)ccc2OC)cc1,active: 5.8 µM,
COC(=O)c1ccc(C(C(=O)NC2CCCCC2)N(Cc2ccc(F)cc2)C(=O)Cc2cccs2)cc1 (configuration not stated),active: 3.66 µM,
CC(C)(C)OC(=O)N1CCC(c2c(C(=O)NCc3ccco3)cnn2-c2ccc(F)cc2F)CC1,inactive,
Cc1ccc(Nc2nc(-c3sc(N)nc3C)cs2)cc1,inactive,
CCOc1cc(/C=C2\CN(C)C/C(=C\c3ccc(O)c(OCC)c3)C2=O)ccc1O,active: 20.6 µM,
COc1ccccc1-c1cn(-c2ccccc2)c(=S)[nH]1,"inconclusive: 16.4 µM [rising, single point]",
CC(C)NC(=O)Nc1ccc2c(c1)C(=O)N([C@H](C)CO)C[C@H](C)[C@@H](CN(C)C(=O)NC(C)C)O2,"inconclusive: 29.1 µM [rising, single point]",
CC1=C(C(=O)c2ccccc2)C(c2ccc(OC(F)F)cc2)NC(=S)N1 (configuration not stated),"inconclusive: 29.1 µM [cytotoxic, single point]",
Cn1nc(-c2ccccc2)c(N2CCCCC2)cc1=O,inactive,
Cc1[nH]c2ccccc2c1C(=O)c1cc(Cc2ccccc2)sc1N,active: 18.4 µM,
CCOC(=O)c1c(C)c(C(=O)NCc2ccc(Cl)cc2)c(C)n1C,,inconclusive: -42.1% [cytotoxic]

# Rewritten with bars between the fields: 2 of the compounds above.
SMILES | Potency | activity change, negative = cytotoxicity
C=CCn1c(SCc2ccc(Br)cc2F)nc2cc(C(=O)O)ccc2c1=O | inactive | 
Cc1cc(C(=O)N2CCN(c3ccccc3)CC2)no1 | inconclusive: 29.1 µM [cytotoxic, single point] | 
